{"sequences": {"note": "By UniProt entry, the sequences of proteins in these tests, tags left out. Residues count along the entry.", "UniProt P04273, 23-231 limits assumed": "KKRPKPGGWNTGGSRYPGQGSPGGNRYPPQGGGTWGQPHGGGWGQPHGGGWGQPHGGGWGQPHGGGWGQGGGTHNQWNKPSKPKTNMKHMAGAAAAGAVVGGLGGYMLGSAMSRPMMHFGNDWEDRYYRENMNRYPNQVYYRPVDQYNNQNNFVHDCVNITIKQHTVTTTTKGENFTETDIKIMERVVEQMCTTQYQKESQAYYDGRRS"}, "source": "patent US6355610B2", "about": "(priority 1998, dated 2002)", "target": "35S-HaPrPsen (Mesocricetus auratus, UniProt P04273)", "assay_type": "biochemical, hamster", "note": "Part of at least one peptide drawing is inferred or uncertain, most often the ends. Ends that are not written are not given here.", "data": [{"sequence": "VVGGLGGYMLGSAMSRPMMHF [P121-141]", "values": [{"measurement": "peptide induced aggregation of 35S-HaPrPsen", "result": "caused aggregation and pelleting of 35S-HaPrPsen"}]}]}
